The values that follow come from PubChem BioAssay AID330 (DTP/NCI, 2004).

This assay relates to P388 leukemia ip, CD2F1 mice, survival T/C. In words: NCI In Vivo Anticancer Drug Screen. Data for tumor model P388 Leukemia (intraperitoneal) in CD2F1 (CDF1) mice. The conditions noted are these: T/C endpoint: median survival time, higher T/C = longer survival.
[1] abbreviates: dose: 50.0 mg/kg/injection, schedule: Q01DX009 (ip), vehicle: Klucel (hydroxypropylcellulose) (HPC).
[2] abbreviates: dose: 50.0 mg/kg/injection, schedule: Q04DX002 (ip), vehicle: Klucel (hydroxypropylcellulose) (HPC).
The mark [3] stands for this setting: dose: 50.0 mg/kg/injection, schedule: Q04DX003 (ip), vehicle: Klucel (hydroxypropylcellulose) (HPC).
The mark [4] stands for this setting: dose: 100.0 mg/kg/injection, schedule: Q01DX005 (ip), vehicle: Klucel (hydroxypropylcellulose) (HPC).
Where [5] appears, read: dose: 100.0 mg/kg/injection, schedule: Q01DX009 (ip), vehicle: Klucel (hydroxypropylcellulose) (HPC).
[6] abbreviates: dose: 100.0 mg/kg/injection, schedule: Q04DX003 (ip), vehicle: Klucel (hydroxypropylcellulose) (HPC).
The mark [7] stands for this setting: dose: 200.0 mg/kg/injection, schedule: Q01DX001 (ip), vehicle: Klucel (hydroxypropylcellulose) (HPC).
Where [8] appears, read: dose: 200.0 mg/kg/injection, schedule: Q01DX009 (ip), vehicle: Klucel (hydroxypropylcellulose) (HPC).
Where [9] appears, read: dose: 200.0 mg/kg/injection, schedule: Q04DX002 (ip), vehicle: Klucel (hydroxypropylcellulose) (HPC).
[10] abbreviates: dose: 200.0 mg/kg/injection, schedule: Q04DX003 (ip), vehicle: Klucel (hydroxypropylcellulose) (HPC).
[11] abbreviates: dose: 400.0 mg/kg/injection, schedule: Q01DX001 (ip), vehicle: Klucel (hydroxypropylcellulose) (HPC).
Setting [12] is: dose: 400.0 mg/kg/injection, schedule: Q01DX009 (ip), vehicle: Klucel (hydroxypropylcellulose) (HPC).
Setting [13] is: dose: 400.0 mg/kg/injection, schedule: Q04DX002 (ip), vehicle: Klucel (hydroxypropylcellulose) (HPC).
Where [14] appears, read: dose: 400.0 mg/kg/injection, schedule: Q04DX003 (ip), vehicle: Klucel (hydroxypropylcellulose) (HPC).

The list shows only some results of the screen, not a fair sample: it is rich in T/C values a quarter to a half above the control, in often repeated tests (any T/C) and in doses without a T/C. Further doses and runs are listed elsewhere. T/C: endpoint of the treated group in % of that of the vehicle group. Some entries give survivors of the animals treated and no T/C: the source files T/C as zero there, which appears to mark a toxic dose or a test without result, not a measured value. Some survivor counts are full or nearly so, which does not show that the dose was tolerated: the source hardly ever lists a survival T/C far under the control, and the zero likely stands for such cases as well. Survivors were counted at the toxicity check, usually on the fifth day, unless a day is given; later deaths do not show. Schedule codes are those of the source, taken here to give the interval after Q, in days (D) or hours (H), and the number of doses after X. Some entries were tested several times; their values stand side by side, smallest first. Where survival is the endpoint, the PubChem record calls one and a half times the control and up active, and a quarter to a half above the control has no call in these data; cut-offs in other NCI protocols can differ. Some T/C values carry the count of animals alive at the toxicity check (mostly the fifth day); without a count, all were alive then. Additions like (4×) give the number of equal values in this list.

Regarding `C[C@]12C=CC(=O)C=C1CC[C@@H]1[C@@H]2C(=O)C[C@@]2(C)[C@H]1CC[C@]2(O)C(=O)CO`, the T/C reads like this: (dose: 50.0 mg/kg/injection, schedule: Q01DX001 (ip), vehicle: Klucel (hydroxypropylcellulose) (HPC)) 89, 97, 100 (4×), 101 (3×), 102 (2×), 103, 104 (3×), 105 (3×), 105 [5 of 6 alive], 106 (2×), 107 (2×), 109 (3×), 110, 113 (2×), 114, 125, 139 % of control; (dose: 50.0 mg/kg/injection, schedule: Q01DX005 (ip), vehicle: Klucel (hydroxypropylcellulose) (HPC), evaluated on day 30) 92, 93, 95, 97, 99, 100 (4×), 101, 103 (2×), 104, 105 (3×), 106 (3×), 107 (2×), 108 (2×), 109 (2×), 110, 111 (3×), 112, 112 [2 of 3 alive], 114, 115, 117, 119 % of control; (dose: 50.0 mg/kg/injection, schedule: Q01DX005 (ip), vehicle: Klucel (hydroxypropylcellulose) (HPC), evaluated on day 60) 99 % of control; under setting [1], 89, 93, 95 (3×), 96 (2×), 98, 99 (2×), 100, 101 (2×), 102, 103 (2×), 104 (2×), 105, 106 (2×), 107, 109, 110, 110 [5 of 6 alive], 112 (3×), 116, 120, 122 % of control (2×); under setting [2], 91 (2×), 92, 94, 97 (2×), 98, 99 (2×), 100 (2×), 101 (2×), 102, 102 [2 of 3 alive], 103 (2×), 104, 105, 106, 106 [2 of 3 alive], 108 (3×), 109, 111 [5 of 6 alive], 112 [2 of 2 alive], 113, 114, 116, 117 (2×), 123, 126 % of control; under setting [3], 97 (2×), 98 (2×), 100 (5×), 103 (3×), 104 (5×), 105 (3×), 108 (2×), 109 (2×), 110 (3×), 112, 113, 114, 115 (2×), 116, 118 % of control. In addition, the T/C (dose: 100.0 mg/kg/injection, schedule: Q01DX001 (ip), vehicle: Klucel (hydroxypropylcellulose) (HPC)) was 86 (2×), 95, 98, 100 (3×), 101, 103 (2×), 104 (2×), 105, 106 (4×), 107 (2×), 109 (2×), 110 (3×), 112, 113 (3×), 114 (2×), 117, 125 % of control; the T/C (dose: 100.0 mg/kg/injection, schedule: Q01DX005 (ip), vehicle: Klucel (hydroxypropylcellulose) (HPC), evaluated on day 30) was 87 (2×), 92, 93, 100 (3×), 101, 102 (2×), 103, 104, 105 (2×), 106, 107 (3×), 108, 109 (2×), 110, 110 [5 of 6 alive], 111 (3×), 112, 116, 117 (3×), 122 % of control; the T/C (dose: 100.0 mg/kg/injection, schedule: Q01DX005 (ip), vehicle: Klucel (hydroxypropylcellulose) (HPC), evaluated on day 60) was 100 % of control; the T/C under setting [5] is 89, 90, 91, 93 (2×), 94 (3×), 95, 96, 98, 98 [5 of 6 alive], 100 (2×), 101, 102 (2×), 104, 106 (2×), 108 (3×), 109, 111, 117 (2×), 118 % of control [5 of 6 alive]; the T/C (dose: 100.0 mg/kg/injection, schedule: Q04DX002 (ip), vehicle: Klucel (hydroxypropylcellulose) (HPC)) was 88, 89, 91, 97 (2×), 98, 99, 100 (3×), 101, 102 (2×), 103 (4×), 104 (3×), 105, 106, 107 (2×), 108 (2×), 110 (2×), 113, 114 (2×), 115, 116, 118, 122 % of control; the T/C under setting [6] is 96, 99, 100 (4×), 101, 103 (3×), 104 (4×), 105 (4×), 106 (4×), 107 (2×), 109 (2×), 110, 111, 112, 113, 115, 116, 117, 118, 120 % of control. The T/C by setting is: under setting [7], 92, 96, 98, 99 (3×), 100 (2×), 102, 103, 104 (3×), 105, 107 (2×), 109 (5×), 111, 112 (2×), 113 (3×), 114, 117, 119, 120 % of control; (dose: 200.0 mg/kg/injection, schedule: Q01DX005 (ip), vehicle: Klucel (hydroxypropylcellulose) (HPC), evaluated on day 30) 86 [5 of 6 alive], 89, 92, 95, 97 (2×), 98 (2×), 102, 103, 106, 107 (3×), 108 (2×), 109, 110, 111 (4×), 112 (4×), 114, 115 % of control; (dose: 200.0 mg/kg/injection, schedule: Q01DX005 (ip), vehicle: Klucel (hydroxypropylcellulose) (HPC), evaluated on day 60) 104 % of control; under setting [8], 86 (3×), 89, 90, 90 [5 of 6 alive], 91, 95, 96 [2 of 3 alive], 96 [5 of 6 alive], 98, 100, 101, 103, 105, 106, 108 (3×), 109, 117 % of control (2×); under setting [9], 87, 88 (2×), 94, 97, 100 (5×), 102 (2×), 103 (3×), 104, 105, 106 (2×), 107 (3×), 108 (4×), 111, 112, 115 (2×), 116 % of control (2×); under setting [10], 89, 95 (2×), 96 (2×), 98, 99, 100 (4×), 103 (4×), 104 (2×), 106, 107, 109 (3×), 110 (2×), 111 (5×), 115, 117, 119, 120, 121, 125 % of control. Also, the T/C reads like this: under setting [11], 88, 97, 100, 101 (2×), 102, 103 (3×), 104 (3×), 105 (2×), 106, 107 (4×), 108, 109 (3×), 111, 112, 114 (2×), 115 (2×), 118, 123 % of control (2×); (dose: 400.0 mg/kg/injection, schedule: Q01DX005 (ip), vehicle: Klucel (hydroxypropylcellulose) (HPC), evaluated on day 30) 86 (2×), 87, 89 [5 of 6 alive], 92, 93 (2×), 94, 97, 97 [5 of 6 alive], 99 (2×), 100 (3×), 102, 103, 104, 105 (2×), 106, 108, 110, 114, 120, 122, 125, 132 % of control; (dose: 400.0 mg/kg/injection, schedule: Q01DX005 (ip), vehicle: Klucel (hydroxypropylcellulose) (HPC), evaluated on day 60) 102 % of control; under setting [12], 86 (2×), 87 (2×), 87 [5 of 6 alive], 89, 90, 91 (2×), 92, 93, 98 (2×), 99, 100 (3×), 101, 103, 104, 122 % of control; under setting [13], 86 [4 of 6 alive], 87, 89, 94, 97, 99, 100 (3×), 102, 103 (5×), 104 (3×), 104 [2 of 3 alive], 106, 107 (2×), 108 (3×), 109, 111, 112, 116 [2 of 3 alive], 119, 120, 125, 126 % of control; under setting [14], 88, 90, 91, 93, 94, 97 (3×), 99 (2×), 100 (3×), 101 (2×), 102, 102 [5 of 6 alive], 103, 104 (2×), 105, 106, 107 (4×), 109, 111, 116, 117, 118, 119, 122, 128 % of control. The survivor count is, setting by setting: (dose: 50.0 mg/kg/injection, schedule: Q01DX005 (ip), vehicle: Klucel (hydroxypropylcellulose) (HPC)) 3 of 6; under setting [1], 3 of 3 and 6 of 6; under setting [2], 6 of 6; under setting [3], 3 of 3 and 6 of 6; under setting [4], 0 of 6, 3 of 3, 6 of 6; under setting [5], 4 of 6, 5 of 6, 3 of 3, 6 of 6. Also, the survivor count is 3 of 3 and 6 of 6 under setting [6]; 6 of 6 under setting [7]; 2 of 3, 4 of 6, 5 of 6, 3 of 3, 6 of 6 (dose: 200.0 mg/kg/injection, schedule: Q01DX005 (ip), vehicle: Klucel (hydroxypropylcellulose) (HPC)); 2 of 3, 3 of 3, 6 of 6 under setting [8]; 3 of 3 and 6 of 6 under setting [9]; 3 of 3 and 6 of 6 under setting [10]. The survivor count reads like this: (dose: 400.0 mg/kg/injection, schedule: Q01DX005 (ip), vehicle: Klucel (hydroxypropylcellulose) (HPC)) 3 of 6, 3 of 3, 6 of 6; under setting [12], 5 of 6, 3 of 3, 6 of 6; under setting [13], 6 of 6; under setting [14], 3 of 3 and 6 of 6; (dose: 1000.0 mg/kg/injection, schedule: Q01DX001 (ip), vehicle: steroid suspending solution) 0 of 10; (dose: 3200.0 mg/kg/injection, schedule: Q01DX005 (ip), vehicle: Klucel (hydroxypropylcellulose) (HPC)) 9 of 10. For the same compound, the survivor count reads like this: (dose: 3200.0 mg/kg/injection, schedule: Q01DX005 (sc), vehicle: Klucel (hydroxypropylcellulose) (HPC)) 10 of 10; (dose: 6400.0 mg/kg/injection, schedule: Q01DX005 (ip), vehicle: Klucel (hydroxypropylcellulose) (HPC)) 9 of 10.
As for `CN1c2ccccc2C(=O)Nc2cnc(Cl)nc21`, the survivor count under setting [4] is recorded as 4 of 5.
For `Clc1ccc(N=Cc2ccc(C=Nc3ccc(Cl)cc3)cc2)cc1`, the survivor count reads like this: under setting [1], 6 of 6; under setting [5], 6 of 6; under setting [8], 6 of 6.
Regarding `CSC(=S)n1nc(-c2cccs2)c(N=Nc2ccccc2)c1C(F)(F)F`, the survivor count is listed as 3 of 6 (dose: 60.0 mg/kg/injection, schedule: Q01DX005 (ip), vehicle: saline with Tween-80); 0 of 6 (dose: 120.0 mg/kg/injection, schedule: Q01DX005 (ip), vehicle: saline with Tween-80); 0 of 6 (dose: 240.0 mg/kg/injection, schedule: Q01DX005 (ip), vehicle: saline with Tween-80).
Take `Nc1nc2c(ncn2C2OC(CO)C(O)C2N)c(=O)[nH]1` (stereo not drawn): the survivor count (dose: 12.5 mg/kg/injection, schedule: Q01DX009 (ip), vehicle: saline with Tween-80) is given as 6 of 6.
On to `O=CC1N=C1c1ccccc1` (stereo not drawn), for which the survivor count under setting [11] is 3 of 6.
